# According to the supplement of paper PMC12819154, “High-throughput peptide-centric local stability assay extends protein–ligand identification to membrane proteins, tissues and bacteria” (Nature Structural & Molecular Biology, 2025):
# Chains of the proteins cited; added tags and fusions are not shown. Lines headed by an entry give the natural chain unless they say otherwise; changes in a name come on top.
# UniProt Q8IX01: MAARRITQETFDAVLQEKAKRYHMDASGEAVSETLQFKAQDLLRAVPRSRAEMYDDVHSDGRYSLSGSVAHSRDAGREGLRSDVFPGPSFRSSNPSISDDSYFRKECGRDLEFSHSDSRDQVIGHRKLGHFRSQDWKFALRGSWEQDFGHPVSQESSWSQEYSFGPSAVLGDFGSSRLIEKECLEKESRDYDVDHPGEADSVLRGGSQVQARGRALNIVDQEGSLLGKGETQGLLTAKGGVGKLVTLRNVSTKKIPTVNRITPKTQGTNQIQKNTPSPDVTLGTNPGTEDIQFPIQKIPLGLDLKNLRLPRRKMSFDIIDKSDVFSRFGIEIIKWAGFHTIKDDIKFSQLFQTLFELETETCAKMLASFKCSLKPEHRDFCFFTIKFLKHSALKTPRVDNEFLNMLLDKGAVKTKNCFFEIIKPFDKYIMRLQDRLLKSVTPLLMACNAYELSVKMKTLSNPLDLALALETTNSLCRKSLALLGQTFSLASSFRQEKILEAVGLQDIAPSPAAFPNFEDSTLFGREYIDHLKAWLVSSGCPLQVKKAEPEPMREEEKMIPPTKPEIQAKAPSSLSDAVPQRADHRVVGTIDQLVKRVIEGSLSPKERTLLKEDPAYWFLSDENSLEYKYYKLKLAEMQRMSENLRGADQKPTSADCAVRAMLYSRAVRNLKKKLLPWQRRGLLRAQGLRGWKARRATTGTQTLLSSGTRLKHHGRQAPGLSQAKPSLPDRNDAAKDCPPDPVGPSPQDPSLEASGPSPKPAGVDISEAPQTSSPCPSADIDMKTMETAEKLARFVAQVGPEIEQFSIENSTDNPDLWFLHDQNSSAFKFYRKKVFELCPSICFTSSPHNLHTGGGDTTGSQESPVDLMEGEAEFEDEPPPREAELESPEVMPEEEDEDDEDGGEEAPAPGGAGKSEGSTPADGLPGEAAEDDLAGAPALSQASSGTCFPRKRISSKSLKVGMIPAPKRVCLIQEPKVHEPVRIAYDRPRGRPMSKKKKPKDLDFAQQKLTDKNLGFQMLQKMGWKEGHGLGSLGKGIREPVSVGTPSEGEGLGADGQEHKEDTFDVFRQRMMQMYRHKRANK
# UniProt Q8IVM0: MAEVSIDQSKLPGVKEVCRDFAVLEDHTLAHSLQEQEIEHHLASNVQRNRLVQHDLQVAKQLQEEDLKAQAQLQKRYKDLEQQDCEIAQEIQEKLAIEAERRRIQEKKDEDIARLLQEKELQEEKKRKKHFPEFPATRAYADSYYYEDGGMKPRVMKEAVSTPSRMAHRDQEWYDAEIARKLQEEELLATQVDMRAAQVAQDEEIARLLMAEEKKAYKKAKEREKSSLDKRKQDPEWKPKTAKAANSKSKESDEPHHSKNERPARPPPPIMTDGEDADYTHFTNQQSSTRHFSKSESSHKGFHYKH
# UniProt Q8IW19: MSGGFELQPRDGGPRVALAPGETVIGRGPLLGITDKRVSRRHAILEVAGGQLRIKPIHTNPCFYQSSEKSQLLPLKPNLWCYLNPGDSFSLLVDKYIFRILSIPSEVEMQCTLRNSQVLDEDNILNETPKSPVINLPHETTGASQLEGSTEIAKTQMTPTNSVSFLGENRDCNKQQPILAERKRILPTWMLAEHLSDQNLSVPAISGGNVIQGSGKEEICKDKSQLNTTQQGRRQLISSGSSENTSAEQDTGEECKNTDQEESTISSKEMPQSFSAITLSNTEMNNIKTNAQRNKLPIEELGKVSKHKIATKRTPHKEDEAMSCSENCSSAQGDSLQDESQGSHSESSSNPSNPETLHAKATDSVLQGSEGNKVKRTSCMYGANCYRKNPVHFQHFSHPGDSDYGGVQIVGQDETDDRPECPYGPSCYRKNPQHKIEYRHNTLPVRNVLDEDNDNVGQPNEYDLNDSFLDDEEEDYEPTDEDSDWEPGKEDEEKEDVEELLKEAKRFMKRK
# UniProt Q8IV48: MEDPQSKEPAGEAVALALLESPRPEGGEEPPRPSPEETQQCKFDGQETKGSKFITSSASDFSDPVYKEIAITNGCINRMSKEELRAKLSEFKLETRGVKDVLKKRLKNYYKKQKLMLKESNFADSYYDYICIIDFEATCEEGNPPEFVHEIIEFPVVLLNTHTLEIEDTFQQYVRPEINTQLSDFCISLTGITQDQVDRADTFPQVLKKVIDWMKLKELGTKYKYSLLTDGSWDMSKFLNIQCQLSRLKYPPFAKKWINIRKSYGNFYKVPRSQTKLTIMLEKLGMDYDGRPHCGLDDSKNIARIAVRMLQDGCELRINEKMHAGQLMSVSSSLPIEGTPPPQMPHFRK
# UniProt Q8N128: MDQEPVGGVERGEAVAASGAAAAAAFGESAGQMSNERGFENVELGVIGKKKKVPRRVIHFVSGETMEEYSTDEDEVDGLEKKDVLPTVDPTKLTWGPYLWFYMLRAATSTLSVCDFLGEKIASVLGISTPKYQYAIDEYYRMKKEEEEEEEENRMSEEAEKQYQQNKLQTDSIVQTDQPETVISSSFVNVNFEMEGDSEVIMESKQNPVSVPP
# UniProt Q8IX18: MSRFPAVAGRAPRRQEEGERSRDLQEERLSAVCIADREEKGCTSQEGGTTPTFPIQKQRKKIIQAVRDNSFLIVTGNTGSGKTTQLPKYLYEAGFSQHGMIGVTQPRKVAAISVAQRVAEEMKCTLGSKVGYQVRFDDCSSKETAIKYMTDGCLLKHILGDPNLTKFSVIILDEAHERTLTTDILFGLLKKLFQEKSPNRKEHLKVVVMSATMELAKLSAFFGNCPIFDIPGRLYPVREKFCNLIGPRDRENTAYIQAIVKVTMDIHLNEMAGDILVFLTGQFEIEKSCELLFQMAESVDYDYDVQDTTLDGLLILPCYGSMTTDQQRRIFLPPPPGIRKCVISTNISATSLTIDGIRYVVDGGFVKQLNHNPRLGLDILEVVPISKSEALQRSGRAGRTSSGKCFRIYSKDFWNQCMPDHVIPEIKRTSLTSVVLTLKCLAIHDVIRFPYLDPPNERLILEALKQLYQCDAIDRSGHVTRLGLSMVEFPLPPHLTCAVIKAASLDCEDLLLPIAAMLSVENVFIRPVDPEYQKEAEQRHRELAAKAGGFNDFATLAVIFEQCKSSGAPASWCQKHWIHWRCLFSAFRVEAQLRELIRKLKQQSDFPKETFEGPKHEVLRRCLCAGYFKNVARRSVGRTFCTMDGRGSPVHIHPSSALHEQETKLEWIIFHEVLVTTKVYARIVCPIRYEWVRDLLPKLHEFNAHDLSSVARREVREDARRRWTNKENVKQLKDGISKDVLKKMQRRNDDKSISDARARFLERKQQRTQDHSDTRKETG
# UniProt Q8IZC7: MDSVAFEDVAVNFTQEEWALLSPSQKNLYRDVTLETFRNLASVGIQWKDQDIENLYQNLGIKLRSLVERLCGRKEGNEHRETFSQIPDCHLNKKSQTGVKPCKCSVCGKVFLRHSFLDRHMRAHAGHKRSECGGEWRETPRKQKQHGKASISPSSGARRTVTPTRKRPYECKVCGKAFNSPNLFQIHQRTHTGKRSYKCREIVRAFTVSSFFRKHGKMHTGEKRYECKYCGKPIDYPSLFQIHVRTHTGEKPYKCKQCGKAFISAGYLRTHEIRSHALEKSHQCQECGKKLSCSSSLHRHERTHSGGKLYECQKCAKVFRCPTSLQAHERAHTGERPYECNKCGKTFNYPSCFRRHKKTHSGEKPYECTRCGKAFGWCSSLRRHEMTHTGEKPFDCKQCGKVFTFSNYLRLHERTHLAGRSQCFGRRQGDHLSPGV
# UniProt Q86XK2: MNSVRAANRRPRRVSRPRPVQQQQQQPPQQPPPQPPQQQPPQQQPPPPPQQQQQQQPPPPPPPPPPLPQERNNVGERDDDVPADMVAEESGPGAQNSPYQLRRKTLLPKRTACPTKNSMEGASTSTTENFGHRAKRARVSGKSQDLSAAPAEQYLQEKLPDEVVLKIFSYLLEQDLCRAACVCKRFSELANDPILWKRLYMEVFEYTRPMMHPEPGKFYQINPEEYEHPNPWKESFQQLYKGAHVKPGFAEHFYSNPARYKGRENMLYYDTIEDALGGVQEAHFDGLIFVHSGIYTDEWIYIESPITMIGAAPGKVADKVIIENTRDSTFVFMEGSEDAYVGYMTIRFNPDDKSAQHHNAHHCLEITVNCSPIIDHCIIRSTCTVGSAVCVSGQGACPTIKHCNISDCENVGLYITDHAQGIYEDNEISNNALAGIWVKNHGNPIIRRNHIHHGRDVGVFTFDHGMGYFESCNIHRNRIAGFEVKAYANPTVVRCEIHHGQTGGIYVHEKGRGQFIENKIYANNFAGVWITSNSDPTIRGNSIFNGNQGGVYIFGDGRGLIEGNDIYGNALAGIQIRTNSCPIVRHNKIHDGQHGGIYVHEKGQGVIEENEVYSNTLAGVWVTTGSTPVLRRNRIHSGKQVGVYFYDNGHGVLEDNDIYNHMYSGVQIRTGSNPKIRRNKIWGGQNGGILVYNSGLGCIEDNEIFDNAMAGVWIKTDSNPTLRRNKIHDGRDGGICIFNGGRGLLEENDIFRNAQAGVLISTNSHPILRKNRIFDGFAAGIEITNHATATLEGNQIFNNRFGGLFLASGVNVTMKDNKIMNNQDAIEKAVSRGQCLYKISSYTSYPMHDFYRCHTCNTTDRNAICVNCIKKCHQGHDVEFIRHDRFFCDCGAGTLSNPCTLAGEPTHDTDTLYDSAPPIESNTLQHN
# UniProt Q8IZ83: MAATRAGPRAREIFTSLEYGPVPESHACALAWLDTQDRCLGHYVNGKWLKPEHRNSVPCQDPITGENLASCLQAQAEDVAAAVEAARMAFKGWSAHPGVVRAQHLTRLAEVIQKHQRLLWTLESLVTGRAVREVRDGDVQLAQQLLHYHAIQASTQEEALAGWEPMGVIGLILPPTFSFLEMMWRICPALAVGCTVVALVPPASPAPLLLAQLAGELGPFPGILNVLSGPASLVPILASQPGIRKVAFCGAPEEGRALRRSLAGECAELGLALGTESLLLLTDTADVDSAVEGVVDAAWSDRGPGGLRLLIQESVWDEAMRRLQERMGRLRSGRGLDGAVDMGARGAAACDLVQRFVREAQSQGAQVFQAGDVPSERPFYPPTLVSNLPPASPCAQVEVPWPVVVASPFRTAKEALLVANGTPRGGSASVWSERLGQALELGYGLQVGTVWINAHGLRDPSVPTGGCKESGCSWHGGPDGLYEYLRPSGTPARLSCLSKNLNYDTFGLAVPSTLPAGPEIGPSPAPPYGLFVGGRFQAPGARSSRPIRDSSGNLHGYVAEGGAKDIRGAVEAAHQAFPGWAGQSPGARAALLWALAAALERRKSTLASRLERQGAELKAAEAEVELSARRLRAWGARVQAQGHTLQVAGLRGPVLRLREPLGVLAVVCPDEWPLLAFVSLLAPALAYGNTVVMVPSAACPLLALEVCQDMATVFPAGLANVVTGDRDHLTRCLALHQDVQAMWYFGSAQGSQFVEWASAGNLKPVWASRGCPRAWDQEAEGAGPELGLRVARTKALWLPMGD
# UniProt Q8IYI8: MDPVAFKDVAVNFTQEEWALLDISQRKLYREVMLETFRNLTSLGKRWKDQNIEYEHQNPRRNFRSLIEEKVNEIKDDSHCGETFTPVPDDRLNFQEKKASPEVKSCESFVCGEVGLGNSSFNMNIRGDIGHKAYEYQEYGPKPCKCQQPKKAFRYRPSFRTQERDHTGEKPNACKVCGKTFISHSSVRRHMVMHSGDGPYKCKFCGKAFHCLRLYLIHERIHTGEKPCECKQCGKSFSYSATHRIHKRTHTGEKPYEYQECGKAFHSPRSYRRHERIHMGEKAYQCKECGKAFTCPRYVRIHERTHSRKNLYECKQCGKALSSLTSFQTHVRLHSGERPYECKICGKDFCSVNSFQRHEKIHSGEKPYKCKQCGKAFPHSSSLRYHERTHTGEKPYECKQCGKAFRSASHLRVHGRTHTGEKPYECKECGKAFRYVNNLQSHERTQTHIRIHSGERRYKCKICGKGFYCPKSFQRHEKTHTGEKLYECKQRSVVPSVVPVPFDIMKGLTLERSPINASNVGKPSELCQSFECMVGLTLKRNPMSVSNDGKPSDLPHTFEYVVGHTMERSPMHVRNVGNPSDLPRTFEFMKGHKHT
# UniProt Q86YR6: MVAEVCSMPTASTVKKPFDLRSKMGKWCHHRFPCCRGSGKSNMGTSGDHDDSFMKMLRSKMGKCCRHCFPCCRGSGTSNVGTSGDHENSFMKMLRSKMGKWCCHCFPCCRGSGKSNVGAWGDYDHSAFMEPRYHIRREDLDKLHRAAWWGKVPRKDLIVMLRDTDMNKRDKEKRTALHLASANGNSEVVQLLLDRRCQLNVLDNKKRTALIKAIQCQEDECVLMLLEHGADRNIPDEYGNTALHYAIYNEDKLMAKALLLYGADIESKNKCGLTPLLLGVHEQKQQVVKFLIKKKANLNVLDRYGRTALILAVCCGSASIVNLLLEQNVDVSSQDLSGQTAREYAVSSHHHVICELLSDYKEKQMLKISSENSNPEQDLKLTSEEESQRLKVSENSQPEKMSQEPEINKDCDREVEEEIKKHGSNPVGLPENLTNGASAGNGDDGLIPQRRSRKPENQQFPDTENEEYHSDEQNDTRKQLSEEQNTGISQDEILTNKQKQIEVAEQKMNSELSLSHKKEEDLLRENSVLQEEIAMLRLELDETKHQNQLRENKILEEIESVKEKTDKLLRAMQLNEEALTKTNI
# Some of the results follow. Small differences around the control level are noise.
# Compound: CN[C@@H]1C[C@H]2O[C@@](C)([C@@H]1OC)n1c3ccccc3c3c4c(c5c6ccccc6n2c5c31)C(=O)NC4 [staurosporine]
# Test: log2 fold change of tryptic peptide abundance, ligand vs vehicle (limited proteolysis) (log2 ratio); higher = more trypsin-susceptible (destabilized)
# Conditions: ligand concentration: 20 uM; sample: K562 cleared lysate; digestion: 4 min, 22 C (HT-PELSA RT4min, Orbitrap Astral)
row,Target,log2 fold change
1,"AGGF1 (peptide sequence: DESFVGPTLSK, peptide start residue: 541) (UniProt Q8N302)",0.631
2,"ZNF687 (peptide sequence: SSSSTEQSLMMGLR, peptide start residue: 1116) (UniProt Q8N1G0)",-0.369
3,"UniProt Q8IX01 (peptide sequence: GADQKPTSADCAVR, peptide start residue: 646)",-0.181
4,"CCDC50 (peptide sequence: AAQVAQDEEIAR, peptide start residue: 196) (UniProt Q8IVM0)",-0.116
5,"ARHGAP12 (peptide sequence: AFYVPAQYVK, peptide start residue: 61) (UniProt Q8IWW6)",0.234
6,"UniProt Q8N1G2 (peptide sequence: DIVEASSQK, peptide start residue: 115)",-0.181
7,"APLF (peptide sequence: GPLLGITDK, peptide start residue: 28) (UniProt Q8IW19)",-0.122
8,"UniProt Q8IWG1 (peptide sequence: KVKTYQK, peptide start residue: 843)",-0.119
9,"ERI1 (peptide sequence: KSYGNFYK, peptide start residue: 262) (UniProt Q8IV48)",0.476
10,"PLEKHM2 (peptide sequence: ASRDPWC, peptide start residue: 1013) (UniProt Q8IWE5)",-0.558
11,"PARP9 (peptide sequence: EIHLVSNEDPTVAAFK, peptide start residue: 274) (UniProt Q8IXQ6)",0.322
12,"FAM177A1 (peptide sequence: MKKEEEEEEEENR, peptide start residue: 142) (UniProt Q8N128)",0.423
13,"LSR (peptide sequence: VLYYMEK, peptide start residue: 404) (UniProt Q86X29)",-0.229
14,"ZCCHC24 (peptide sequence: GEALSNSVYK, peptide start residue: 81) (UniProt Q8N2G6)",-0.0658
15,"DHX40 (peptide sequence: TLTTDILFGLLKK, peptide start residue: 179) (UniProt Q8IX18)",-0.442
16,"UniProt Q8IZQ5 (peptide sequence: KAEAAVVAVAEK, peptide start residue: 9)",-0.385
17,"UniProt Q8N2Z9 (peptide sequence: SEEIAQINLER, peptide start residue: 100)",-0.352
18,"LTBP4 (peptide sequence: GYLAPSGDLSLR, peptide start residue: 1240) (UniProt Q8N2S1)",0.458
19,"SIX5 (peptide sequence: TIWDGEETVYCFKER, peptide start residue: 197) (UniProt Q8N196)",-0.273

row,Target,log2 fold change
1,"UniProt Q8IYD8 (peptide sequence: YQIILAR, peptide start residue: 332)",-0.282
2,"ADGRG2 (peptide sequence: RYLCCGKLR, peptide start residue: 892) (UniProt Q8IZP9)",0.235
3,"SYTL1 (peptide sequence: GDQAPGHDR, peptide start residue: 114) (UniProt Q8IYJ3)",0.868
4,"ZNF101 (peptide sequence: RQGDHLSPGV, peptide start residue: 427) (UniProt Q8IZC7)",0.306
5,"FBXO11 (peptide sequence: NSMEGASTSTTENFGHR, peptide start residue: 117) (UniProt Q86XK2)",-0.226
6,"UniProt Q8IWF6 (peptide sequence: SPNFDGWFK, peptide start residue: 511)",0.806
7,"GTPBP8 (peptide sequence: IFDPSPEDIAR, peptide start residue: 70) (UniProt Q8N3Z3)",-0.131
8,"ZDHHC14 (peptide sequence: TMHVLGLASQDSLHEDSVR, peptide start residue: 462) (UniProt Q8IZN3)",-0.64
9,"ALDH16A1 (peptide sequence: KVAFCGAPEEGR, peptide start residue: 245) (UniProt Q8IZ83)",0.397
10,"BBS7 (peptide sequence: SDNISTISILKDVLSK, peptide start residue: 567) (UniProt Q8IWZ6)",0.418
11,"CBWD2 (peptide sequence: TDLVPEEDVK, peptide start residue: 205) (UniProt Q8IUF1)",0.293
12,"ZGRF1 (peptide sequence: WTDAVYGDNKEDANKPIQEVR, peptide start residue: 650) (UniProt Q86YA3)",-0.865
13,"ZNF440 (peptide sequence: TFISHSSVR, peptide start residue: 180) (UniProt Q8IYI8)",0.401
14,"PELP1 (peptide sequence: ACMTYFPR, peptide start residue: 201) (UniProt Q8IZL8)",0.451
15,"ANKHD1 (peptide sequence: ANVVTTPSTNRK, peptide start residue: 1533) (UniProt Q8IWZ3)",0.401
16,"VRK2 (peptide sequence: KGHNGTIEFTSLDAHK, peptide start residue: 208) (UniProt Q86Y07)",0.629
17,"UniProt Q86YR6 (peptide sequence: QKQIEVAEQK, peptide start residue: 498)",0.0928
18,"NCAPG2 (peptide sequence: VQIHDTR, peptide start residue: 747) (UniProt Q86XI2)",0.563

# Retrieved one by one from the list above:
row,Target,log2 fold change
18,"NCAPG2 (peptide sequence: VQIHDTR, peptide start residue: 747) (UniProt Q86XI2)",0.563
1,"UniProt Q8IYD8 (peptide sequence: YQIILAR, peptide start residue: 332)",-0.282
9,"ALDH16A1 (peptide sequence: KVAFCGAPEEGR, peptide start residue: 245) (UniProt Q8IZ83)",0.397
